Data from PubChem BioAssay AID504834 (National Center for Advancing Translational Sciences (NCATS), 2011).
The whole screen tested about 320,000 compounds, of which about 22,000 (6.9%) were called active. This list was built around the results that the source calls inconclusive (neither active nor inactive); the mix of calls is not that of the screen. The call rests on the fitted dose curve; in most records, active means well fitted inhibition curve with a large enough effect; inconclusive means small, poorly fitted or top-dose-only effect, or another doubt; inactive means no such curve, though single readings can be large or run the other way. Where the call is inconclusive, the potency comes from a doubtful curve fit.

Assay: Primary qHTS for delayed death inhibitors of the malarial parasite plastid, 96 hour incubation
Settings: P. falciparum luciferase reporter growth; series mostly up to 28.7 µM
How it was run: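 Luminescence readout: decreased luciferase signal marks inhibited growth of reporter-expressing P. falciparum in infected red cells (2% hematocrit, 0.05% parasitemia final), exposed to compound two generations (96 h, 37 C, 5% CO2).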
Potency means the concentration at half of the fitted maximal effect.

SMILES	Potency
Cc1ccc(S(=O)(=O)N2CCN(C(=O)CSc3nncs3)CC2)cc1	inactive
CCCCNC(=O)Cn1cnc([N+](=O)[O-])n1	inconclusive: 10.4 µM [inhibitor, single point]
O=C(CN1C(=O)NC2NC(=O)NC21)NN=C1CCCC1 (centres undefined)	inconclusive: 0.0047 µM [inhibitor, full curve, poor fit]
COc1cc(Cl)c(NS(=O)(=O)c2c(C(=O)N3CCCC3)c(C)n(C)c2C)c(OC)c1	inconclusive: 11.7 µM [inhibitor, single point]
O=C(CN(Cc1ccco1)C(=O)c1ccc(Cl)cc1)Nc1c(Cl)cc(Cl)cc1Cl	inconclusive: 11.7 µM [inhibitor, single point]
O=C(O)c1cccc(NC(=S)NCc2ccccc2)c1	inconclusive: 0.37 µM [inhibitor, full curve, poor fit]
CC(C)c1ccc(NC(=O)CSc2nnc(OC(=O)N(C)C)n2C2CC2)cc1	inconclusive: 18.5 µM [inhibitor, single point]
CCOC(=O)N1CCN(C(=O)CSc2nnc(-c3ccc(C)c(C)c3)o2)CC1	active: 9.28 µM
CCSc1ccc([C@@H]2[C@H]3C(=O)N(C)C(=O)[C@H]3[C@]3(C(=O)OC)CCCCN23)cc1OC	inconclusive: 10.4 µM [inhibitor, partial curve, poor fit]
CC1=C(C(=O)Nc2ccccc2C)C(c2ccccc2)NC(=O)N1 (centres undefined)	inactive
O=C(Cc1cccc(C(F)(F)F)c1)NCc1cccnc1	inactive
CN(C)c1ccc(NC(=O)CN2C3CCCC2CC(NC(=O)c2ccccc2)C3)cc1 (centres undefined)	inactive
CCCCC(=O)Nc1cccc(NC(=O)c2ccc(Br)cc2)c1	inactive
Oc1ccc(C=Nc2ccccc2-c2nc3ccccc3[nH]2)c(O)c1	inactive
CCOC(=O)c1ccccc1NC(=S)N1CC(C)CC(C)C1 (centres undefined)	inconclusive: 1.47 µM [inhibitor, full curve, poor fit]
Cc1coc(C)c1C(=O)Nc1ccc2ccccc2c1	inactive
CN(Cc1c(F)cccc1Cl)C(=O)c1ccc(NS(=O)(=O)c2ccc3[nH]c(=O)[nH]c3c2)cc1	inconclusive: 2.33 µM [inhibitor, single point]
CC1=C(C(=O)Nc2ccccc2)C(c2cccnc2)n2ncnc2N1 (centres undefined)	inconclusive: 18.5 µM [inhibitor, single point]
CC(C)c1ccc(S(=O)(=O)NC2CCS(=O)(=O)C2)cc1 (centres undefined)	inactive
CC1CCN(CCNC(=O)C2CCN(S(=O)(=O)c3cccc4nsnc34)CC2)CC1	inconclusive: 6.57 µM [inhibitor, partial curve, poor fit]
CCc1ccc(N(C(=O)Cc2cccs2)C(C(=O)NC2CCCCC2)c2cn(C)nc2C)cc1 (centres undefined)	inconclusive: 7.38 µM [inhibitor, partial curve]
C[C@H](NC(=O)c1ncn(Cc2ccccc2)c1C(=O)N[C@@H](C)c1ccccc1)c1ccccc1	active: 8.28 µM
Cc1cc([N+](=O)[O-])ccc1NC(=O)CN1CCN(Cc2ccccc2)CC1	inconclusive: 10.4 µM [inhibitor, partial curve, poor fit]
COc1ccc(C2c3c(ccc4ccccc34)Oc3ncn4nc(Cc5ccc(OC)c(OC)c5)nc4c32)cc1 (centres undefined)	inconclusive: 11.7 µM [inhibitor, single point]
CC(NC(=O)c1ccco1)C(=O)N1CCN(c2cccc(C(F)(F)F)c2)CC1 (centres undefined)	inconclusive: 18.5 µM [inhibitor, single point]

Among those listed so far, two have an NH in an aromatic ring:
SMILES	Potency
Oc1ccc(C=Nc2ccccc2-c2nc3ccccc3[nH]2)c(O)c1	inactive
CN(Cc1c(F)cccc1Cl)C(=O)c1ccc(NS(=O)(=O)c2ccc3[nH]c(=O)[nH]c3c2)cc1	inconclusive: 2.33 µM [inhibitor, single point]

(cont.)

SMILES	Potency
COc1ccc2c(C)cc(SCC(=O)c3ccc4c(c3)OCO4)nc2c1	inconclusive: 0.131 µM [inhibitor, full curve, poor fit]
Cc1cc(Cl)ccc1NC(=S)NCCN1CCOCC1	active: 5.22 µM
Cn1ccnc1Sc1ccccc1[N+](=O)[O-]	inconclusive: 2.33 µM [inhibitor, partial curve, poor fit]
C=CCNc1oc(C2CCCC2)nc1C#N	inactive
O=C(NC(Cc1ccccc1)C(=O)O)c1cccnc1Cl (centres undefined)	inactive
Cc1ccc(-n2c(-c3ccc(Cl)cc3)n[nH]c2=S)cc1	inactive
CSC1=NCCN1C(=O)c1c(F)cccc1Cl	inconclusive: 10.4 µM [inhibitor, partial curve, poor fit]
CCc1onc(C)c1C(=O)O	inconclusive: 18.5 µM [inhibitor, single point]
CC(C)n1nc(C(=O)NCc2ccc3c(c2)OCO3)c2ccccc2c1=O	inconclusive: 18.5 µM [inhibitor, single point]
CCCCn1c(=O)[nH]c(=O)c2c1nc(-c1ccccc1F)n2Cc1ccccc1OC	inconclusive: 18.5 µM [inhibitor, single point]
COc1ccc(-c2oc3ccc(-c4ccc(OC)nc4)cc3c2C#CC2(O)CCCCC2)cc1	active: 5.86 µM
Cc1ccc(-c2ncc(Cl)cc2-c2ccc(S(C)(=O)=O)cc2)cn1	active: 13.5 µM
O=C(C1CCCO1)N1CCN(S(=O)(=O)c2ccc(Cl)cc2)CC1 (centres undefined)	inactive
CCOC(CNC(=O)c1cccn2c(=O)c3cc(Cl)ccc3nc12)OCC	inconclusive: 0.928 µM [inhibitor, full curve, poor fit]
Cc1ccc(NC(=O)c2ccc(COc3ccccc3)o2)nc1	inactive
Cc1ccc2[nH]c(=O)c(CN(CCO)Cc3nnnn3CCc3ccccc3)cc2c1	active: 8.28 µM
O=C(Nc1ccccc1C(=O)Nc1ccc(Br)cn1)c1ccccc1Cl	inconclusive: 14.7 µM [inhibitor, partial curve, poor fit]
CC(C)CSc1nnc2c(n1)[nH]c1ccccc12	inconclusive: 3.7 µM [inhibitor, partial curve, poor fit]
CC(=O)c1cccc(NC(=O)COc2ccc3oc(=O)cc(C)c3c2)c1	inconclusive: 8.28 µM [inhibitor, partial curve, poor fit]
Cc1cc(NC(=O)CSCC(=O)Nc2cc(C(F)(F)F)ccc2N2CCOCC2)no1	inconclusive: 5.86 µM [inhibitor, partial curve]
CCN1CCCC1CNCc1cccc(OC)c1OCc1ccccc1 (centres undefined)	active: 11.7 µM
C=C(C)COc1ccc(-c2n[nH]c(C)c2-c2ccccc2OC)c(O)c1	active: 11.7 µM
Cc1c(Br)cccc1NC(=O)c1sccc1-n1cccc1	inconclusive: 14.7 µM [inhibitor, single point]
CCc1cccc2c(C(=O)CSc3nnc(-c4ccncc4)n3C)c[nH]c12	active: 10.4 µM
CCCC1C2C(=O)N(c3ccccc3)C(=O)C2ON1c1ccccc1 (centres undefined)	inactive

SMILES	Potency
O=C1CCCc2oc3ccc(O)cc3c21	inconclusive: 10.4 µM [inhibitor, partial curve]
CN(C)c1nc(-c2cn(CCC#N)c3ccccc23)cs1	inconclusive: 18.5 µM [inhibitor, single point]
COc1cc(/C=N/Nc2cccc(C)c2)cc(Br)c1O	inconclusive: 18.5 µM [inhibitor, single point]
COc1ccc(/C=C/C(=O)OCC(=O)Nc2c(C)cccc2C)cc1	inactive
Cc1nc(N/N=C/c2ccc(O)cc2O)cc(N2CCOCC2)n1	inconclusive: 18.5 µM [inhibitor, single point]
O=C(CSc1nc2[nH]ncc2c(=O)n1-c1ccccc1)N1CCCCCC1	active: 10.4 µM
COc1cccc(-c2ncc3ccccc3c2COC(=O)CCCC(=O)O)c1	inconclusive: 4.65 µM [inhibitor, single point]
COc1ccc(CCNC(=O)[C@@H](NC(=O)c2ccccc2F)C(C)C)cc1OC	inactive
NCCCNC(=O)c1ccc(/C=N/O)nc1	inactive
COc1ccc(S(=O)(=O)NCC(c2cccnc2)N2CCN(Cc3ccccc3)CC2)cc1 (centres undefined)	inconclusive: 13.1 µM [inhibitor, single point]
O=c1oc(-c2ccccc2NS(=O)(=O)c2ccc(Cl)cc2)nc2ccccc12	inconclusive: 6.57 µM [inhibitor, partial curve, poor fit]
COc1ccccc1NC(=S)N/N=C/c1cccc(C)c1	inactive
c1cc(CNC23CC4CC(CC(C4)C2)C3)ccn1	active: 1.85 µM
COc1ccccc1N1CCN(CCCNC(=O)Nc2ccccc2)CC1	inconclusive: 18.5 µM [inhibitor, single point]
COc1cc(/C=N/N2CCN(C3c4ccccc4-c4ccccc43)CC2)cc(OC)c1O	inconclusive: 10.4 µM [inhibitor, single point]
O=C(CSc1nc2ccccc2o1)Nc1ccccc1N1CCOCC1	inconclusive: 16.5 µM [inhibitor, single point]
O=C(Cc1ccccn1)Nc1ccccc1	inactive
CCOC(=O)CSc1n[nH]c(NC(=O)c2cccc(C(F)(F)F)c2)n1	inconclusive: 16.5 µM [inhibitor, single point]
Clc1ccccc1-c1nc(/C=N/N2CCOCC2)c2ccccn12	inactive
CCC(=O)N(c1nnc(SCC(=O)Nc2ccccc2Cl)s1)C1CC1	inactive
COc1ccc(-c2csc3ncnc(NCCO)c23)cc1	inactive
COC(=O)c1ccc(Nc2nc(C)cc(C)n2)cc1	inactive
O=[N+]([O-])c1ccc(N2CCN(S(=O)(=O)c3ccccc3[N+](=O)[O-])CC2)cc1NCc1cccnc1	active: 10.4 µM
Cc1ccc(OCC(O)Cn2c(NCCc3ccccc3)nc3c2c(=O)[nH]c(=O)n3C)cc1 (centres undefined)	inconclusive: 1.65 µM [inhibitor, full curve, poor fit]

Looked up by compound from the entries so far (2):
SMILES	Potency
Cc1cc(NC(=O)CSCC(=O)Nc2cc(C(F)(F)F)ccc2N2CCOCC2)no1	inconclusive: 5.86 µM [inhibitor, partial curve]
CN(C)c1ccc(NC(=O)CN2C3CCCC2CC(NC(=O)c2ccccc2)C3)cc1 (centres undefined)	inactive
